Here are results for three compounds from patent publication EP4831172A1, “A CLASS OF POLYCYCLIC COMPOUNDS AND USES THEREOF” (dated 2026).

Sequences of proteins named here, by UniProt entry; tags and fusion partners are left off. Residues count along the entry.
UniProt P43220, 24-463 limits assumed: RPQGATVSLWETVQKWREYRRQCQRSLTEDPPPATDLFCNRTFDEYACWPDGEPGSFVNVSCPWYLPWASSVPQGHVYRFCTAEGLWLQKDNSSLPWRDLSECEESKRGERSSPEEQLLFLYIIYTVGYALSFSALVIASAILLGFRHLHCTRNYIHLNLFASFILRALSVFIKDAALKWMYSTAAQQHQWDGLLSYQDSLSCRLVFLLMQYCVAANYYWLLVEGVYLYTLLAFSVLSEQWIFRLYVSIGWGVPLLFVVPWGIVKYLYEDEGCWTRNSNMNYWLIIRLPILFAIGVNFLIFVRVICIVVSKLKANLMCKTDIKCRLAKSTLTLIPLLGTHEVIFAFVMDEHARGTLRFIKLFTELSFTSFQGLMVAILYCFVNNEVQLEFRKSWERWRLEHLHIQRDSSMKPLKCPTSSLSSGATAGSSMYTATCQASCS

Structures were worked out from names or drawings and are uncertain.

Data set [1] is described as follows: In vivo pharmacokinetic study in mice. The following applies: ICR mice, detection results at 24 h.
Data set [2] addresses GLP-1R (Homo sapiens, UniProt P43220). The experiment in a line: GLP1R-cAmp-Luc cell luciferase reporter assay of agonistic activity (titled in vitro enzymatic assay). The note with it: read-out: Agonistic activity (EC50: nM); GLP1R-cAmp-Luc cells, 4 h incubation. On the technique in general: Reporter assays use an easily measured gene product as a stand-in for the process of interest.

As usually defined, the Cmax is the maximum level reached in the sampled fluid or tissue. Broadly, the Tmax is the time from dosing to the highest level. `Cc1cc(-n2nc3c(c2-n2ccn(-c4cc5c6c(cnn6CCO5)c4F)c2=O)[C@H](C)N(C(=O)c2cc4cc([C@H]5CCOC(C)(C)C5)ccc4n2[C@@]2(c4noc(=O)[nH]4)C[C@@H]2C)CC3)cc(C)c1F` showed an AUCinf in data set [1] (iv (2 mg/kg)) of 7207 ng·h/mL. Besides, in data set [1] (po (10 mg/kg)), the AUCinf turned out to be 43702 ng·h/mL, the maximum concentration (Cmax) is listed as 4557 ng/mL and the Tmax turned out to be 1.67 h.
Broadly, the EC50 is the concentration that produces a half-maximal response. In the case of `Cc1cc(-n2nc3c(c2-n2cnn(-c4ccc5c(cnn5C)c4F)c2=O)[C@H](C)N(C(=O)c2cc4cc([C@H]5CCOC(C)(C)C5)ccc4n2[C@@]2(c4noc(=O)[nH]4)C[C@@H]2C)CC3)cc(C)c1F`, the concentration for a half-maximal effect (EC50) in data set [2] is below 10 nM.
In the case of `C[C@H]1c2c(nn(-c3ccc(F)c(C4CC4)c3)c2-n2ccn(-c3ccc4c(cnn4C)c3F)c2=O)CCN1C(=O)c1cc2cc([C@H]3CCOC(C)(C)C3)ccc2n1[C@@]1(c2noc(=O)[nH]2)C[C@@H]1C`, the AUCinf in data set [1] (iv (2 mg/kg)) stood at 7077 ng·h/mL. In data set [1] (po (10 mg/kg)), the AUCinf came to 42906 ng·h/mL, the highest concentration (Cmax) worked out at 5103 ng/mL and the time to peak (Tmax) worked out at 1.00 h. The EC50 in data set [2] was below 10 nM.
